Measured values taken from US20140162952A1.
Results are given in words; binding and its absence hold for the method and conditions named. For part of these data: Binding seen in cells or lysates may run through a third protein. Some results given as binding are weak or reduced against the parent protein; the word gives no strength. Tags and fused reporters may be left off the sequences shown.

Sequences of proteins named here, by UniProt entry; tags and fusion partners are left off. A change or cut given only in a name is not applied to a line headed by its entry.
UniProt Q99623: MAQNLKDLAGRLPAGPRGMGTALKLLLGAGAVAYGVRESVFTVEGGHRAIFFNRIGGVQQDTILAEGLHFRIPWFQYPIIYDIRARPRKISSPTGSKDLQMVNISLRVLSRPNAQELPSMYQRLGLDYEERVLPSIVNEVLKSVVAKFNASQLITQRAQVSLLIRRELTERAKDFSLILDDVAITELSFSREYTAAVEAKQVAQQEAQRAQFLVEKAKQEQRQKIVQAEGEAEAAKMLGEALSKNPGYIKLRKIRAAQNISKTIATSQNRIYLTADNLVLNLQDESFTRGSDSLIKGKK
UniProt P03372: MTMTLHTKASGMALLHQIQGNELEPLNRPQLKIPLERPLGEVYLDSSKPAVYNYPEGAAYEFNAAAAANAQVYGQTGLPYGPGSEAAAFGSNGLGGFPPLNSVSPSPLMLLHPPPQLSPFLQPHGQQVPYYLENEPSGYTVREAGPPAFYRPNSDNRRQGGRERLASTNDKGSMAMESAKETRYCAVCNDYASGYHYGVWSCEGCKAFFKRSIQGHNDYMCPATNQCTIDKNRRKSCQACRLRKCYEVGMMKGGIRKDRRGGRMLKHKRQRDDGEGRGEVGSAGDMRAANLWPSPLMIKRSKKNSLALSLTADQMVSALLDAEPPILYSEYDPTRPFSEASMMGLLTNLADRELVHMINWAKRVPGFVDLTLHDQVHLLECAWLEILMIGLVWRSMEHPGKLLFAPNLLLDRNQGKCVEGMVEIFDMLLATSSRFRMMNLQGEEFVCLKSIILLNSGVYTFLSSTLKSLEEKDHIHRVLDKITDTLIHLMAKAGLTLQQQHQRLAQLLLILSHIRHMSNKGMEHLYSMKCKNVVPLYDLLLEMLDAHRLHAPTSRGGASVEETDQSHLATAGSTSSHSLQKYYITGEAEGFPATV

Experiments:
[1] = target: inherent PHB2/REA (prohibitin 2 / Repressor of Estrogen Activity) (human) (UniProt Q99623); test: co-IP from cytoplasm and nuclear fractions of KPL-3C cells, 24 h, 10 nM E2 and/or 10 µM HA-tagged ERAP1-peptide; blot anti-HA
[2] = target: estrogen receptor α (ERα) (human) (UniProt P03372); test: as above
[3] = target: 6×His-tagged recombinant PHB2/REA protein (human) (UniProt Q99623); test: Biacore with HA-tagged ERAP1-peptide
[4] = target: 6×His-tagged recombinant PHB2/REA protein (human) (UniProt Q99623); test: Ni-resin pull-down and Western blot
[5] = target: 6×His-tagged recombinant PHB2/REA protein (human) (UniProt Q99623); test: Ni-resin pull-down of 10 µg His-PHB2 mixed with lysate of Flag-tagged ERAP1 expressing cells and HA-peptide; blot for Peptide; competitor: Flag-ERAP1
[6] = target: 6×His-tagged recombinant PHB2/REA protein (human) (UniProt Q99623); test: Biacore, 6xHis-PHB2/REA immobilised on the chip, HA-tagged ERAP1-peptide injected; plot of the equilibrium response against the peptide concentration
[7] = target: inherent PHB2/REA (prohibitin 2 / Repressor of Estrogen Activity) (human) (UniProt Q99623); test: IP-Western of cell fractions (KPL-3C) and immunofluorescence (MCF-7)
[8] = target: 6×His-tagged recombinant PHB2/REA protein (human) (UniProt Q99623); test: fluorescence correlation spectroscopy, 10 nM FITC-tagged ERAP1-peptide with rising 6xHis-PHB2/REA
[9] = target: 6×His-tagged recombinant PHB2/REA protein (human) (UniProt Q99623); test: fluorescence correlation spectroscopy with FITC-tagged ERAP1-peptide

Measured: binding

RRRRRRRRRRRQMLSDLTLQLRQR [HA-tagged ERAP1-peptide]
not listed: [8] | [9]
binds: all other assays above

RRRRRRRRRRRQMLSDLTLQLRQR (FITC tag, position not stated) [FITC-tagged ERAP1-peptide]
binds: [8] | [9]
